Experimental data reported in patent US12503440B2, “Nitroxoline derivative, preparation method therefor, and use thereof” (Jiangsu Yahong Meditech Co., Ltd., priority 2020, dated 2025).
Some results were stated once for a whole list of compounds, not compound by compound.

Assays:
Experiment in all cases: Bacteriostatic activity, micro broth dilution MIC (CLSI)
Assay type in all cases: cell-based
Acinetobacter baumannii = details: in words; Gram-negative criterion MIC value≤128 mg/L
Protocol: (§1) The purpose of this test is to determine the bacteriostatic activity of the compounds of the present invention against a representative panel of strains (Gram-negative bacteria: […] ATCC 25922, Acinetobacter baumannii ATCC 19606; Gram-positive bacteria: Staphylococcus aureus ATCC29213). Bacteriostatic activity was determined by minimum inhibitory concentration (MIC), MIC50, MIC90. This test was entrusted to Shanghai Junj Lab Co., Ltd. Except for the test drugs, all other test materials were provided by Shanghai Junj Lab Co., Ltd.
(§2) The tested bacteria were several strains of clinically isolated carbapenem-resistant Escherichia coli, several strains of carbapenem-resistant Acinetobacter baumannii, several strains of methicillin-resistant Staphylococcus aureus, and several strains of sensitive Staphylococcus aureus. Duplicate strains isolated from the same patient were eliminated. There were also three quality control strains Escherichia coli ATCC 25922, Acinetobacter baumannii ATCC 19606, and Staphylococcus aureus ATCC 29213. The activity test of each compound was carried out on one or more strains of each of the above test bacteria.
(§3) According to the recommendations of relevant documents of the American Clinical and Laboratory Standards Institute (CLSI), the micro broth dilution method was used to determine the MIC of the compounds of the present invention against clinically isolated strains. The culture solution free of drug was used as the test bacteria positive control, the culture solution free of bacterial solution was used as the drug negative control, and the culture solution free of drug solution and bacterial solution was used as the blank control. • 4.1 Formulation of antibacterial drug: All the compounds of the present invention were dissolved in DMSO. The drug concentration range was 128 mg/L-0.06 mg/L. Specific method: The compounds of the present invention were successively diluted by 1:1 with DMSO to obtain an intermediate series with a range of 25600 mg/L-12.5 mg/L. 30 μL of solution from each tube of the intermediate series of each compound was added to a 3 mL/tube series of single broth tube, and mixed well to obtain an intermediate series with a range of 256 mg/L to 0.125 mg/L. The diluted series solution was added to the drug susceptibility plate line by line, 50 μL of solution per well. All ranges became investigated ranges after being mixed with an equal volume of bacterial solution: 128-0.06 mg/L. • 4.2 Culture medium: The drug susceptibility test used cation adjusted Mueller-Hinton broth (CAMHB). • 4.3 Amount of inoculum: The test bacteria cultured overnight were adjusted to 0.5 McFarland turbidity by the direct colony suspension method, and diluted 100 folds, the final inoculum amount was 10^5 CFU/mL. • 4.4 Culture conditions: The test bacteria were cultured at 35±2° C. for 20 hours in air. 5. Interpretation and Judgment of Results
(§4) The drug susceptibility test results were interpretated by reference to CLSI 2019 edition M100 29th edition criteria.
(§5) The results of drug susceptibility test were statistically analyzed by WHONET version 5.6 software.
(§6) The culture solution free of bacterial solution was used as the drug negative control, and the culture solution free of drug solution and bacterial solution was used as the blank control, wherein no bacteria grew in both solutions.

Escherichia coli = details: in words; Gram-negative criterion MIC value≤128 mg/L
Protocol: as §1, §2, §3, §4, §5, §6

Staphylococcus aureus = details: in words; Gram-positive criterion MIC value≤4 mg/L
Protocol: as §1, §2, §3, §4, §5, §6

Compound	bacteriostatic activity against Acinetobacter baumannii (Acinetobacter baumannii)	bacteriostatic activity against Escherichia coli (Escherichia coli)	bacteriostatic activity against Staphylococcus aureus (Staphylococcus aureus)
O=[N+]([O-])c1cc(F)c(O)c2ncccc12 [Example 1, 7-fluoro-5-nitroquinolin-8-ol]	have bacteriostatic activity	have bacteriostatic activity	have bacteriostatic activity
O=[N+]([O-])c1ccc(O)c2nccc(Cl)c12 [Example 2, 4-chloro-5-nitroquinolin-8-ol]	have bacteriostatic activity	have bacteriostatic activity	have bacteriostatic activity
O=[N+]([O-])c1ccc(O)c2nccc(-c3ccccc3)c12 [Example 9, 5-nitro-4-phenylquinolin-8-ol]	–	–	have bacteriostatic activity
COc1ccnc2c(O)ccc([N+](=O)[O-])c12 [Example 16, 4-methoxy-5-nitroquinolin-8-ol]	have bacteriostatic activity	have bacteriostatic activity	have bacteriostatic activity
O=[N+]([O-])c1ccc(O)c2nccc(C3CC3)c12 [Example 19, 4-cyclopropyl-5-nitroquinolin-8-ol]	have bacteriostatic activity	have bacteriostatic activity	have bacteriostatic activity
O=[N+]([O-])c1ccc(O)c2nccc(C3CCCC3)c12 [Example 24, 4-cyclopentyl-5-nitroquinolin-8-ol]	have bacteriostatic activity	have bacteriostatic activity	have bacteriostatic activity
O=[N+]([O-])c1ccc(O)c2nccc(C3CCCCC3)c12 [Example 25, 4-cyclohexyl-5-nitroquinolin-8-ol]	have bacteriostatic activity	have bacteriostatic activity	have bacteriostatic activity
O=[N+]([O-])c1ccc(O)c2nccc(C(F)(F)F)c12 [Example 26, 5-nitro-4-trifluoromethylquinolin-8-ol]	have bacteriostatic activity	have bacteriostatic activity	have bacteriostatic activity
N#Cc1ccnc2c(O)ccc([N+](=O)[O-])c12 [Example 27, 4-cyano-5-nitroquinolin-8-ol]	have bacteriostatic activity	have bacteriostatic activity	have bacteriostatic activity
CCOC(=O)c1cnc2c(O)ccc([N+](=O)[O-])c2c1 [Example 32, ethyl 8-hydroxy-5-nitroquinoline-3-carboxylate]	have bacteriostatic activity	have bacteriostatic activity	have bacteriostatic activity
CC(C)c1cc(O)c2ncccc2c1[N+](=O)[O-] [Example 33, 8-hydroxy-6-isopropyl-5-nitroquinoline]	have bacteriostatic activity	have bacteriostatic activity	have bacteriostatic activity
O=[N+]([O-])c1c(C2CC2)cc(O)c2ncccc12 [Example 34, 8-hydroxy-6-cyclopropyl-5-nitroquinoline]	have bacteriostatic activity	have bacteriostatic activity	have bacteriostatic activity
O=C(OCC1CC1)c1cnc2c(O)ccc([N+](=O)[O-])c2c1 [Example 39, cyclopropylmethyl 8-hydroxy-5-nitroquinoline-3-carboxylate]	–	have bacteriostatic activity	have bacteriostatic activity
CCN(CC)C(=O)c1cnc2c(O)ccc([N+](=O)[O-])c2c1 [Example 40, N,N-diethyl-8-hydroxy-5-nitroquinoline-3-carboxamide]	–	have bacteriostatic activity	have bacteriostatic activity
O=[N+]([O-])c1c(F)cc(O)c2ncccc12 [Example 42, 8-hydroxy-6-fluoro-5-nitroquinoline]	–	have bacteriostatic activity	have bacteriostatic activity
O=C(OC1CCCCC1)c1cnc2c(O)ccc([N+](=O)[O-])c2c1 [Example 43, cyclohexyl 8-hydroxy-5-nitroquinoline-3-carboxylate]	–	–	have bacteriostatic activity
